These results are taken from publication PMC10923876.

Sequences of proteins named here, by UniProt entry; tags and fusion partners are left off. A change or cut given only in a name is not applied to a line headed by its entry. A line that says so, or that is headed by a name, gives the form on record, which may keep a tag or linker.
UniProt Q9UGL1: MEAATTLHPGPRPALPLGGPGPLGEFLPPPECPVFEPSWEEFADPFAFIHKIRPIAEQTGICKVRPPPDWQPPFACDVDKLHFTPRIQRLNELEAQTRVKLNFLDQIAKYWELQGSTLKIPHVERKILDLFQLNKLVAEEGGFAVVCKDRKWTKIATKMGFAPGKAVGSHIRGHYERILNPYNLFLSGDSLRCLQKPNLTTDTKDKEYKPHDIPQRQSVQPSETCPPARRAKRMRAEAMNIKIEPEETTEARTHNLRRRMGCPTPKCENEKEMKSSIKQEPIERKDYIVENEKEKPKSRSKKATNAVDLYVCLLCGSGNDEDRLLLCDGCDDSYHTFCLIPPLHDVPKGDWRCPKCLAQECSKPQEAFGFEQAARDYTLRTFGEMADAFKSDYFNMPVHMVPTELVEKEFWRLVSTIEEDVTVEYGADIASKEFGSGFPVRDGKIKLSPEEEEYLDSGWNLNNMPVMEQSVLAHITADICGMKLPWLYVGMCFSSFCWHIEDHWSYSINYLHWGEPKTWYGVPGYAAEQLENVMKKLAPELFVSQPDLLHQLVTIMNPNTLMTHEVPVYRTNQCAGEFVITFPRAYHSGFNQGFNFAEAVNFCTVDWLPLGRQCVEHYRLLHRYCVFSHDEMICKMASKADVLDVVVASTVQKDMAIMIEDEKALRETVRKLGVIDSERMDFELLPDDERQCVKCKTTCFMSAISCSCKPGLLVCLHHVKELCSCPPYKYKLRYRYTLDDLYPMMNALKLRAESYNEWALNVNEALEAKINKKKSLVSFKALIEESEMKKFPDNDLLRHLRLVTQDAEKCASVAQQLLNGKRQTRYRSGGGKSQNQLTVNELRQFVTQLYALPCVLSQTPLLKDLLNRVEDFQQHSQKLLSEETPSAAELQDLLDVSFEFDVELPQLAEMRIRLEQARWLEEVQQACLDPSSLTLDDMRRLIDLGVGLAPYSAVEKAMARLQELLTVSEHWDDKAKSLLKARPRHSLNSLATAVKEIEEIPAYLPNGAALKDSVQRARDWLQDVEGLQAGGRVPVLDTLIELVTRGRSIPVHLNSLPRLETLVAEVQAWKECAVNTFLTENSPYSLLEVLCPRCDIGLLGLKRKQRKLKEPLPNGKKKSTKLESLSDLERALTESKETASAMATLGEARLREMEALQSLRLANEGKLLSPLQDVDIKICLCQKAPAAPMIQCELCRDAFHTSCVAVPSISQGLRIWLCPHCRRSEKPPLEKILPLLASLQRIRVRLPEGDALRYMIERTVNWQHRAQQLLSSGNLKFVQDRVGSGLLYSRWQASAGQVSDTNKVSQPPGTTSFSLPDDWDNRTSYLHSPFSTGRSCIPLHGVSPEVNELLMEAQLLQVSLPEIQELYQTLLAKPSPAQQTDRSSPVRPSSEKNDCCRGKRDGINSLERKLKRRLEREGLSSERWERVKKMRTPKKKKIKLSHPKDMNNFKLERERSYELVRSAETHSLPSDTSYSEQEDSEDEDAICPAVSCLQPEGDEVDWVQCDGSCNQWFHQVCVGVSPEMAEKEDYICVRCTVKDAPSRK
KDM5B-AA mutant (Lys769 and Lys773 mutated to alanine), expressed in HEK293T cells (Q9UGL1, form named): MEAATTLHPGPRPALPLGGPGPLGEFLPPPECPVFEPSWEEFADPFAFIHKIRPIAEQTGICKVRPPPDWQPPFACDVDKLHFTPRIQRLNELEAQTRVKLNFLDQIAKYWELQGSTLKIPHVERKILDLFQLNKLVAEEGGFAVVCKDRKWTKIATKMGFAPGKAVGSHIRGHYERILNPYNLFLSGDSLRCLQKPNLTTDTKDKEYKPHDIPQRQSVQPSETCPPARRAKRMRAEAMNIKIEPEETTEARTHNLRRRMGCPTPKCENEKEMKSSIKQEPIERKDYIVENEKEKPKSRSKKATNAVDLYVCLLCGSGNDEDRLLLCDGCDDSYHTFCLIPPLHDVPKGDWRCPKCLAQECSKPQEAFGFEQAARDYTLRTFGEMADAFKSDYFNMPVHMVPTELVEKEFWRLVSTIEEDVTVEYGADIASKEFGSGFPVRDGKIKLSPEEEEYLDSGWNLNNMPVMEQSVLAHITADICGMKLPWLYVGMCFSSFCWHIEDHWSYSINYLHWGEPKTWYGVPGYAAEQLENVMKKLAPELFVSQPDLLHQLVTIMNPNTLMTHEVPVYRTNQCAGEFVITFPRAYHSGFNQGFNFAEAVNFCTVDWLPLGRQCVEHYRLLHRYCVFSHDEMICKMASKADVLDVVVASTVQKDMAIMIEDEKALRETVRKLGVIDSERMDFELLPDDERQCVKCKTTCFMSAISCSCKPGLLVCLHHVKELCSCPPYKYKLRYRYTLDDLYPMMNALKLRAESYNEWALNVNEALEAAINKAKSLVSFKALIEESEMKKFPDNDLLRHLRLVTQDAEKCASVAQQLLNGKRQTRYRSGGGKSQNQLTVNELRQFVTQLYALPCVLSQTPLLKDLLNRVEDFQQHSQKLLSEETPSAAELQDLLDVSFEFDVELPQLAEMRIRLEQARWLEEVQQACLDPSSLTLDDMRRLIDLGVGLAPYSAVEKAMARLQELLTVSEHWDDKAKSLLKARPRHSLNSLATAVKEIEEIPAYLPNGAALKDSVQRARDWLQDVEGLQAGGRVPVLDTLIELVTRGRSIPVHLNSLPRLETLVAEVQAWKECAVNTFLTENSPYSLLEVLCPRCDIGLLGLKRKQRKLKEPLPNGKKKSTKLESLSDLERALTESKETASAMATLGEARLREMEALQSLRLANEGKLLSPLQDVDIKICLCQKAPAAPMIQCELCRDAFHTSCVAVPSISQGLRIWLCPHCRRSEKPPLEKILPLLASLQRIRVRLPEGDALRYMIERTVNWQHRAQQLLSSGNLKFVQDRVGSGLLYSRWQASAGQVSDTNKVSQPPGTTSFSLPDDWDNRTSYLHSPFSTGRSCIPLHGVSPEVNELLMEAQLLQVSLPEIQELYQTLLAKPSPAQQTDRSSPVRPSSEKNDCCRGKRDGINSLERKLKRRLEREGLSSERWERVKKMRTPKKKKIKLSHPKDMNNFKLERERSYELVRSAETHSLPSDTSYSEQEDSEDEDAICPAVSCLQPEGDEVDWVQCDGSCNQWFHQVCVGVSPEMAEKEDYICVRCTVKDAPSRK
UniProt Q93009: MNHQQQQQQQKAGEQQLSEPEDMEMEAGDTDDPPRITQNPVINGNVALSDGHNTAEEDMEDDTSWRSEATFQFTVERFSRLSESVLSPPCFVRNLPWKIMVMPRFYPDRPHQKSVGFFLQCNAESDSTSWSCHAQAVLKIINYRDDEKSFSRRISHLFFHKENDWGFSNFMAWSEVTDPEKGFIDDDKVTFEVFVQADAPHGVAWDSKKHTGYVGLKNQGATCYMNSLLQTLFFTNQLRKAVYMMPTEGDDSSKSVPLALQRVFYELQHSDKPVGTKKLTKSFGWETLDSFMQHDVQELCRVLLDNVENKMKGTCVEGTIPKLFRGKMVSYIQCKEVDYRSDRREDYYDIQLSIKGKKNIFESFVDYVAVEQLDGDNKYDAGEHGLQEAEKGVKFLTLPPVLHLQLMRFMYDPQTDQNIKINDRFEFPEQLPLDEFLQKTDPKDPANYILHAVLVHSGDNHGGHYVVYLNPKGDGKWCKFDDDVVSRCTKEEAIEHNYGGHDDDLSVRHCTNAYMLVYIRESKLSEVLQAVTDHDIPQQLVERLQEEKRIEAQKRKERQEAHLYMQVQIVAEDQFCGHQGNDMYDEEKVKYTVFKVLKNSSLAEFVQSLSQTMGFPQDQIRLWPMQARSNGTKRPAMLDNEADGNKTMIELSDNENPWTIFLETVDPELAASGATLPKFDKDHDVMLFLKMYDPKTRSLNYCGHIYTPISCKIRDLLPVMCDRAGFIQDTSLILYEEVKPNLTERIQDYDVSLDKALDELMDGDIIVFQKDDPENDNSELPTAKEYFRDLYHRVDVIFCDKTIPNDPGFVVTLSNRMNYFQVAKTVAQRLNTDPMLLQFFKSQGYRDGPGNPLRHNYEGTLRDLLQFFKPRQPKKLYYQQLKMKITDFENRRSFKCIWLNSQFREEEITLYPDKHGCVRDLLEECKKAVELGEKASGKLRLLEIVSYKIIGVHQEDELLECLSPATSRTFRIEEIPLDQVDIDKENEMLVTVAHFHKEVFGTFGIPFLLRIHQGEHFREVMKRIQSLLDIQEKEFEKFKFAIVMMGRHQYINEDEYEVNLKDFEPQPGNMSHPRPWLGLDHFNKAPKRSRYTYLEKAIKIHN

These are yes or no findings as the source states them, for the method shown. In cells and extracts the contact can be indirect. Some results given as binding are weak or reduced against the parent protein; the word gives no strength.

Assay [1] concerns the target wild-type KDM5B (KDM5B-WT), expressed in HEK293T cells (UniProt Q9UGL1). Description: co-IP; HEK293T cells transfected with the indicated plasmids, harvested 48 h after transfection; blotted with the indicated antibodies.
Assay [2] addresses KDM5B-AA mutant (Lys769 and Lys773 mutated to alanine), expressed in HEK293T cells (UniProt Q9UGL1). The description is as above.
Another assay concerns the target GST-KDM5B (UniProt Q9UGL1). Put plainly: pull-down; GST, GST-KDM5B or GST-CBX7 pulldown from HNE1 cells; Western blot for USP7 and KDM5B; silver staining of the GST protein input; only the target purified. On the technique in general: In western blotting, separated proteins are transferred to a membrane and probed.
Assay [3] concerns the target lysine-specific demethylase 5B (KDM5B), endogenous (human (endogenous in HNE1 and CNE2)) (UniProt Q9UGL1). Description: co-IP; endogenous proteins; HNE1 and CNE2 cells harvested and immunoprecipitated with IgG and USP7 or KDM5B antibodies.

For the substance “USP7 in HEK293T cells (co-IP of Fig. 6e) (from UniProt Q93009 1-1102) (enzyme)”, the binding result is “binds” in assay [1] and “no binding” in assay [2].
For “deubiquitinase USP7, endogenous (from UniProt Q93009 1-1102) (enzyme)”, the binding entry (with GST-KDM5B; in assay [3]) was “binds” in each case.
